Measured values taken from the supplement of paper PMC8728848.
Some of the results follow.

How the values were obtained:
Experiment in all cases: glycan array binding signal (z-score within array); higher = stronger binding
Details in all cases: glycan notation: IUPAC condensed, linker removed; mutation: Q318A
[1] = biological target: GalNAc(a1-3)GalNAc(b1-3)Gal(a1-4)Gal(b1-4)GlcNAc
Method in brief: (§1)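 The Consortium for Functional Glycomics database supplied 3228 glycan arrays, of which those lacking an available protein sequence were dropped. The binding signal, a within-array Z-score, was averaged across arrays of the same protein sequence and across linkers. Negative scores can be read as non-binding.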

[2] = biological target: GalNAc(b1-3)Gal
Method in brief: as §1

[3] = biological target: GalNAc(b1-3)Gal(a1-4)Gal(b1-4)GlcNAc
Method in brief: as §1

[4] = biological target: GalNAc(b1-3)Gal(a1-4)Gal(b1-4)GlcNAc(b1-3)Gal(b1-4)Glc
Method in brief: as §1

[5] = biological target: GalNAc(b1-3)Gal(a1-6)Gal(b1-4)Glc
Method in brief: as §1

[6] = biological target: GalNAc(b1-3)GalNAc
Method in brief: as §1

[7] = biological target: GalNAc(b1-3)GlcNAc
Method in brief: as §1

[8] = biological target: GalNAc(b1-4)Gal(b1-4)Glc
Method in brief: as §1

[9] = biological target: GalNAc(b1-4)GlcNAc
Method in brief: as §1

[10] = biological target: GalNAc(b1-4)GlcNAc(b1-2)Man
Method in brief: as §1

[11] = biological target: GalNAc(b1-4)GlcNAc(b1-2)Man(a1-3)[GalNAc(b1-4)GlcNAc(b1-2)Man(a1-6)]Man(b1-4)GlcNAc(b1-4)GlcNAc
Method in brief: as §1

[12] = biological target: GalNAc(b1-4)GlcNAc(b1-3)GalNAc(b1-4)GlcNAc
Method in brief: as §1

[13] = biological target: GalNAc(b1-4)GlcNAc6S
Method in brief: as §1

[14] = biological target: GalNAc(b1-6)GalNAc
Method in brief: as §1

[15] = biological target: GalNAc3S(b1-4)GlcNAc
Method in brief: as §1

[16] = biological target: GalNAc3S(b1-4)GlcNAc3S
Method in brief: as §1

[17] = biological target: GalNAc3S(b1-4)[Fuc(a1-3)]GlcNAc
Method in brief: as §1

[18] = biological target: GalNAc4S6S(b1-4)GlcNAc
Method in brief: as §1

[19] = biological target: GalNAc6S(b1-4)GlcNAc
Method in brief: as §1

[20] = biological target: Glc(a1-4)Glc
Method in brief: as §1

[21] = biological target: Glc(a1-4)Glc(a1-4)Glc(a1-4)Glc
Method in brief: as §1

[22] = biological target: Glc(a1-6)Glc(a1-6)Glc
Method in brief: as §1

[23] = biological target: Glc(a1-6)Glc(a1-6)Glc(a1-6)Glc
Method in brief: as §1

[24] = biological target: Glc(b1-4)Glc
Method in brief: as §1

[25] = biological target: Glc(b1-6)Glc
Method in brief: as §1

[26] = biological target: GlcA(b1-3)Gal
Method in brief: as §1

[27] = biological target: GlcA(b1-3)GlcNAc
Method in brief: as §1

[28] = biological target: GlcA(b1-6)Gal
Method in brief: as §1

[29] = biological target: GlcA3S(b1-3)Gal(b1-4)GlcNAc(b1-2)Man
Method in brief: as §1

[30] = biological target: GlcA3S(b1-3)Gal(b1-4)GlcNAc(b1-3)Gal(b1-4)Glc
Method in brief: as §1

[31] = biological target: GlcNAc(a1-3)Gal(b1-4)GlcNAc
Method in brief: as §1

[32] = biological target: GlcNAc(a1-4)Gal(b1-3)GlcNAc
Method in brief: as §1

[33] = biological target: GlcNAc(a1-4)Gal(b1-4)GalNAc
Method in brief: as §1

[34] = biological target: GlcNAc(a1-4)Gal(b1-4)GlcNAc
Method in brief: as §1

[35] = biological target: GlcNAc(a1-4)Gal(b1-4)GlcNAc(b1-3)Gal(b1-4)Glc
Method in brief: as §1

[36] = biological target: GlcNAc(a1-4)Gal(b1-4)GlcNAc(b1-3)Gal(b1-4)GlcNAc
Method in brief: as §1

[37] = biological target: GlcNAc(a1-4)Gal(b1-4)GlcNAc(b1-3)Gal(b1-4)GlcNAc(b1-3)Gal(b1-4)GlcNAc
Method in brief: as §1

[38] = biological target: GlcNAc(a1-4)Gal(b1-4)GlcNAc(b1-3)Gal(b1-4)[Fuc(a1-3)]GlcNAc(b1-3)Gal(b1-4)[Fuc(a1-3)]GlcNAc
Method in brief: as §1

B1: SUN4 (Saccharomyces cerevisiae), P53616 (protein)
chain: MGSSHHHHHHSSGLVPRGSHNGSIYGDLADFSGPYEKFEDGTIPCGQFPSGQGVIPISWLDEGGWSGVENTDTSTGGSCKEGSYCSYACQPGMSKTQWPSDQPSDGRSIGGLLCKDGYLYRSNTDTDYLCEWGVDAAYVVSELSNDVAICRTDYPGTENMVIPTYVQAGDSLPLTVVDQDTYYTWQGLKTSAAYYVNNAGISVEDACVWGSSSSGVGNWAPLNFGAGSSDGVAYLSLIPNPNNGNALNFNVKIVAADDSSTVNGECIYENGSFSGGSDGCTVSVTAGKAKFVLYN
glycan array binding signal (z-score) [1]: 0.562
glycan array binding signal (z-score) [2]: 0.858
glycan array binding signal (z-score) [3]: 0.305
glycan array binding signal (z-score) [4]: -0.596
glycan array binding signal (z-score) [5]: -1.14
glycan array binding signal (z-score) [6]: 0.446
glycan array binding signal (z-score) [7]: -0.837
glycan array binding signal (z-score) [8]: 1.66
glycan array binding signal (z-score) [9]: 0.304
glycan array binding signal (z-score) [10]: -0.117
glycan array binding signal (z-score) [11]: 1.17
glycan array binding signal (z-score) [12]: -1.26
glycan array binding signal (z-score) [13]: 0.208
glycan array binding signal (z-score) [14]: -0.508
glycan array binding signal (z-score) [15]: 0.499
glycan array binding signal (z-score) [16]: 0.514
glycan array binding signal (z-score) [17]: -0.017
glycan array binding signal (z-score) [18]: 0.173
glycan array binding signal (z-score) [19]: -0.136
glycan array binding signal (z-score) [20]: -0.008
glycan array binding signal (z-score) [21]: 0.474
glycan array binding signal (z-score) [22]: 0.304
glycan array binding signal (z-score) [23]: 0.21
glycan array binding signal (z-score) [24]: 1.26
glycan array binding signal (z-score) [25]: -0.673
glycan array binding signal (z-score) [26]: 0.144
glycan array binding signal (z-score) [27]: -0.324
glycan array binding signal (z-score) [28]: 1.12
glycan array binding signal (z-score) [29]: -0.145
glycan array binding signal (z-score) [30]: -1.07
glycan array binding signal (z-score) [31]: -0.75
glycan array binding signal (z-score) [32]: -0.269
glycan array binding signal (z-score) [33]: -0.54
glycan array binding signal (z-score) [34]: -0.911
glycan array binding signal (z-score) [35]: 0.243
glycan array binding signal (z-score) [36]: -0.654
glycan array binding signal (z-score) [37]: 1.38
glycan array binding signal (z-score) [38]: 0.137
